Measurements from paper PMC7005486.
Results are given in words; binding and its absence hold for the method and conditions named. In cells and extracts the contact can be indirect. Some entries that bind do so weakly or less than the wild type.

By UniProt entry, the sequences of proteins in these tests, tags left out.
UniProt Q13283: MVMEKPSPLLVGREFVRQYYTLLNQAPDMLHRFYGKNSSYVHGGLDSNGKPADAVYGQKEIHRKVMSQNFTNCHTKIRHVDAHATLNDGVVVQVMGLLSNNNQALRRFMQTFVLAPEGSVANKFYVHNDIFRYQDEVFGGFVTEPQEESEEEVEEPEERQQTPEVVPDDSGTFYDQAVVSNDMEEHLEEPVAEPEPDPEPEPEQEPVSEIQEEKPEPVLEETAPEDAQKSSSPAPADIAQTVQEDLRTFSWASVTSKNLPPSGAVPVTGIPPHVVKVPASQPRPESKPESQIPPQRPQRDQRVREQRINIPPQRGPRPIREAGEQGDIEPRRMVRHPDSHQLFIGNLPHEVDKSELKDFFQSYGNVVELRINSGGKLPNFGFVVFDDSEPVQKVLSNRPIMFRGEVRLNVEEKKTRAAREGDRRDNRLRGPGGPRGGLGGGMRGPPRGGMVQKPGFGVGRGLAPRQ
UniProt Q9UBN7: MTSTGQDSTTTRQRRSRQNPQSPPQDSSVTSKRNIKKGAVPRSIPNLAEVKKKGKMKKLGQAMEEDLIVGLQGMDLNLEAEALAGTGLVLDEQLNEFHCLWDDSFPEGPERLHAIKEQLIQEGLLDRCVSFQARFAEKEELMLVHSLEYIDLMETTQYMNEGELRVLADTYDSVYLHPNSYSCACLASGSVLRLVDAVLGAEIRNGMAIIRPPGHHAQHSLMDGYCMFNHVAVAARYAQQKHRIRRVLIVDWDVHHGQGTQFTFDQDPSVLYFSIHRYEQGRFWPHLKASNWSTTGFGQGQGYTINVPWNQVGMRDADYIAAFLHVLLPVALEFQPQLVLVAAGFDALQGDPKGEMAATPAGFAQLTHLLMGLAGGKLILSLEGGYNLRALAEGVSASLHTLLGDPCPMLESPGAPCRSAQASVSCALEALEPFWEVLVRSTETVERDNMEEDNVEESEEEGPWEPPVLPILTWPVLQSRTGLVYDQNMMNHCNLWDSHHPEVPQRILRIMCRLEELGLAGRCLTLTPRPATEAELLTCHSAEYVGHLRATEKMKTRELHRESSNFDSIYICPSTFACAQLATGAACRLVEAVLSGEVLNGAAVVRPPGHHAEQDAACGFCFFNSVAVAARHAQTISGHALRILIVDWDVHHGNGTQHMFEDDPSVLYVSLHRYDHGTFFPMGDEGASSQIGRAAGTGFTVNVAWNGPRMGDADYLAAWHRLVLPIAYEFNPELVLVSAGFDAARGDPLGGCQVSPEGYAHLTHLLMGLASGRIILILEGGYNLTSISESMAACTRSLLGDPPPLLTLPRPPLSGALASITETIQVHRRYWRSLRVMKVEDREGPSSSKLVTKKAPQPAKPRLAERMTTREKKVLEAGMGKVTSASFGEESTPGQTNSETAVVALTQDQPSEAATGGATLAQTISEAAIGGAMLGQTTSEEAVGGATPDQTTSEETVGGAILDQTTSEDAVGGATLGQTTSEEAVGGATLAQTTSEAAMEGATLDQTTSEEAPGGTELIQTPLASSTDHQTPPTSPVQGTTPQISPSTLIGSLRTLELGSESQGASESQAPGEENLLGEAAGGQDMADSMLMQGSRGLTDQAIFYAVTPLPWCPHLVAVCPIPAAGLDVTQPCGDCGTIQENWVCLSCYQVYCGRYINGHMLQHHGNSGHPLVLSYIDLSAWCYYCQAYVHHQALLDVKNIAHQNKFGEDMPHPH

Target: G3BP1, endogenous in RD cells (human (endogenous in RD)) (UniProt Q13283)
Assay: co-IP; endogenous proteins; RD cells infected with CA16 (MOI 1, 4 h) or mock infected; RIPA lysates incubated with 1 ug antibody (anti-G3BP1, anti-HDAC6 or anti-p62) at 4°C overnight, protein A/G agarose, Western blot

binding: binds
Substance: histone deacetylase 6 (HDAC6), endogenous in RD cells (from UniProt Q9UBN7 1-1215)
